PMC10656488
The exact form of at least one protein or probe is not confirmed.

System: sXBP1 (spliced XBP1)
Assay: EMSA
Conditions: supershifted band reported; fluorescence-based EMSA kit (Molecular Probes), 6% polyacrylamide gel; pH and temperature not given; recombinant protein

“GGGGAAGTTGTAATCACGTCCAGTTCCACTATAAGA (double strand) [SEPT2 EMSA WT probe]”: binds.
